Reference: patent publication US12378320B2, “Methods for treating pancreatitis” (Cold Spring Harbor Laboratory, priority 2018, dated 2025)

B1: Q9CWJ9 (protein, UniProt Q9CWJ9 1-592, looked up)
chain: MAPSQLALFSVSDKTGLVEFARSLASLGLSLVASGGTAKAIRDAGLAVRDVSELTGFPEMLGGRVKTLHPAVHAGILARNIPEDAADMARLDFNLVRVVVCNLYPFVKTVASPDVTVEAAVEQIDIGGVTLLRAAAKNHARVTVVCEPEDYAGVAAEMHGSDSKDTSLETRRHLALKAFTHTAQYDEAISDYFRKQYSKGISQMPLRYGMNPHQTPAQLYTLKPKLPITVLNGAPGFINLCDALNAWQLVTELRGAVDIPAAASFKHVSPAGAAVGVPLSEDEARVCMVYDLYPTLTPLAVAYARARGADRMSSFGDFVALSDICDVPTAKIISREVSDGIVAPGYEEEALKILSKKKNGNYCVLQMDQSYKPDENEVRTLFGLRLSQKRNNGVVDKSLFSNIVTKNKDLPESALRDLIVATVAVKYTQSNSVCYAKDGQVIGIGAGQQSRIHCTRLAGDKANSWWLRHHPRVLSMKFKAGVKRAEISNAIDQYVTGTIGEGEDLVKWEALFEEVPELLTEAEKKEWVDKLSGVSVSSDAFFPFRDNVDRAKRSGVAYIVAPSGSTADKVVIEACDELGIVLAHTDLRLFHH
modifications: full-length
B2: Q8BH00 (protein, UniProt Q8BH00 1-487, looked up)
chain: MAGKRELLMLENFIGGKFLPCNSYIDSYDPSTGEVYCKVPNSGKEEIEAAVEAAREAFPAWSSRSPQERSLVLNRLADVLEQSLEELAQAESKDQGKTLTLARTMDIPRSVLNFRFFASSNLHHVSECTQMSHLGCMHYTVRTPVGIAGLISPWNLPLYLLTWKIAPAIAAGNTVIAKPSEMTSVTAWMFCKLLDKAGVPPGVINIVFGTGPRVGEALVSHPEVPLISFTGSQPTAERITQLSAPHCKKLSLELGGKNPAIIFEDANLEECIPATVRSSFANQGEICLCTSRIFVQRSIYSEFLKRFVEATRKWKVGVPSDPSANMGALISKAHLEKVRSYVLKAQTEGARILCGEGVDQLSLPLRNQAGYFMLPTVITDIKDESRCMTEEIFGPVTCVVPFDSEEEVITRANSVRYGLAATVWSKDVGRIHRVAKKLQSGLVWTNCWLIRELNLPFGGMKSSGIGREGAKDSYDFFTEIKTITIKY
modifications: full-length
B3: Q8BWT1 (protein, UniProt Q8BWT1 1-397, looked up)
chain: MALLRGVFIVAAKRTPFGAYGGLLKDFSATDLTEFAARAALSAGKVPPETIDSVIVGNVMQSSSDAAYLARHVGLRVGVPTETGALTLNRLCGSGFQSIVSGCQEICSKDAEVVLCGGTESMSQSPYCVRNVRFGTKFGLDLKLEDTLWAGLTDQHVKLPMGMTAENLAAKYNISREDCDRYALQSQQRWKAANEAGYFNEEMAPIEVKTKKGKQTMQVDEHARPQTTLEQLQKLPSVFKKDGTVTAGNASGVSDGAGAVIIASEDAVKKHNFTPLARVVGYFVSGCDPTIMGIGPVPAINGALKKAGLSLKDMDLIDVNEAFAPQFLSVQKALDLDPSKTNVSGGAIALGHPLGGSGSRITAHLVHELRRRGGKYAVGSACIGGGQGIALIIQNTA
modifications: full-length

These molecules were tested on CA19-9 modified proteins (assay: CA19-9 IP/MS (iTRAQ) of organoid conditioned media after Dox treatment). Details: A217 (genetic negative) organoids conditioned media, after 8 hours of treatment, CA19-9 IP with 5B1; relative to 17 0H NS19.
Design: species or system mouse

Molecule | 17 8H 5B1
B1 | 1.223
B2 | 2.803
B3 | 2.21

Same assay, conditions: A217 (genetic negative) organoids conditioned media, after 8 hours of treatment, CA19-9 IP with NS19-9; relative to 17 0H NS19

Molecule | 17 8H NS19
B1 | 0.716
B2 | 0.558
B3 | 0.344

Same assay, conditions: A217 (genetic negative) organoids conditioned media, before treatment (0H), CA19-9 IP with NS19-9; relative abundance, reference channel

Molecule | 17 0H NS19
B1 | 1
B2 | 1
B3 | 1

Same assay, conditions: A220 (C;R^LSL;F) organoids conditioned media, before treatment (0H), CA19-9 IP with 5B1; relative to 17 0H NS19

Molecule | 20 0H 5B1
B1 | 1.099
B2 | 2.783
B3 | 1.806
